Assay results reported in US10804000B2, “High efficiency continuous-flow production of radioisotopes” (priority 2016, dated 2020).

Columns and labels:
[1] = Continuous-flow Szilard-Chalmers irradiation (flow loop), enrichment factor; details: for Maximum Enrichment Factor: continuous flow, solid powder target
[2] = Irradiation of ammonium molybdate phosphate powder, 99Mo activity in washes, target and capture matrix; details: sample 2: irradiated in contact with water capture matrix
Text: Wash 1, Wash 2, and the irradiated molybdenum target were all analyzed for ^99Mo activity using gamma spectroscopy at the prominent ^99Mo peak of 141 KeV.
Post irradiation the capture matrix was separated from the irradiation target and washed an additional time to determine post irradiation solubility (wash 1).

Molecule | Maximum Enrichment Factor ([1]; water capture matrix) | % Activity in capture matrix [2] [%] | % Activity in target [2] [%] | increase of the samarium-153 specific activity compared to just irradiating the target under the same conditions ([1]; at enrichment factor 11.19) [%] | Maximum Enrichment Factor ([1]; 10^−4M HNO3 capture matrix)
CC(=O)C=C(C)[O-].CC(=O)C=C(C)[O-].CC(=O)C=C(C)[O-].[Sm+3] [Compound 1, Samarium acetylacetonate] | 3.56 | – | – | – | –
ammonium molybdate phosphate [Sample 2] | – | 6.5 | 92.2 | – | –
CC(=O)C=C(C)[O-].CC(=O)C=C(C)[O-].CC(=O)C=C(C)[O-].[Ho+3] [Holmium acetylacetonate] | 14.83 | – | – | – | –
Samarium 8-hydroxyquinolinate [Compound 4] | 11.19 | – | – | 91.6 | 1.37
Holmium 8-hydroxyquinolinate [Compound 5] | 11.26 | – | – | – | 4.54
